The test addresses T1, Flag-tagged human CPT1a (carnitine palmitoyl transferase 1a) (human) (UniProt P50416).
T1 sequence: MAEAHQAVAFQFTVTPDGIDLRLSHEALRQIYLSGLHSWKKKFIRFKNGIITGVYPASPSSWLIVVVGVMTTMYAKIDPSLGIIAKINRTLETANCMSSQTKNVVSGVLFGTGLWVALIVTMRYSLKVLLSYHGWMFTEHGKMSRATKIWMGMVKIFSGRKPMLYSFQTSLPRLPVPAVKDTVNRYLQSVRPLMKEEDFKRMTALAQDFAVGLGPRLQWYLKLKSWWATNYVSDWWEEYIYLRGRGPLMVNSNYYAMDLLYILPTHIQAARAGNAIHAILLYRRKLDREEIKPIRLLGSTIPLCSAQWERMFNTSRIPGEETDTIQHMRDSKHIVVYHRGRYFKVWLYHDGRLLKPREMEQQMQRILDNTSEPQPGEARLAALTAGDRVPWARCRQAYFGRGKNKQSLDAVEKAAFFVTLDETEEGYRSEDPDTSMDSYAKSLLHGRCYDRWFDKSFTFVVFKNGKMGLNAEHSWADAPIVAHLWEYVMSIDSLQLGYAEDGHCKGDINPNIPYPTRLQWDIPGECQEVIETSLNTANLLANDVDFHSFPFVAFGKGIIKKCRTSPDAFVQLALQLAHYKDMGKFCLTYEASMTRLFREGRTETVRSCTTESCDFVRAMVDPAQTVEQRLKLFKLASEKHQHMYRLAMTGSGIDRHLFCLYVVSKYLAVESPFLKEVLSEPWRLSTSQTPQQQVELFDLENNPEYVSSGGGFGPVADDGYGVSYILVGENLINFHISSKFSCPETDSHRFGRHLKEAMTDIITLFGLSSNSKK
Put plainly: affinity purification with mass spectrometry; CPT1a-flag complexes purified on anti-flag M2 magnetic beads from 293T cells overexpressing CPT1a-flag or empty vector; SDS-PAGE, gel digestion, LC-MS/MS; also analysed by Western blot. (A western blot detects proteins with antibodies after separation by electrophoresis.)

Results are given in words; binding and its absence hold for the method and conditions named. In cells and extracts the contact can be indirect. Here binding means that the protein was enriched with, or labelled near, the bait; the list need not be complete. Sequences can lack the tags named with a protein.

The values below come from publication PMC8692896.

B1: ubiquitin-specific peptidase 50 (USP50), endogenous in 293T cells (enzyme, UniProt Q70EL3 1-339)
chain: MTSQPSLPADDFDIYHVLAECTDYYDTLPVKEADGNQPHFQGVTGLWNLGNTCCVNAISQCLCSILPLVEYFLTGKYITALQKFLLPSDCSEVATAFAYLMTDMWLGDSDCVSPEIFWSALGNLYPAFTKKMQQDAQEFLICVLNELHEALKKYHYSRRRSYEKGSTQRCCRKWITTETSIITQLFEEQLNYSIVCLKCEKCTYKNEVFTVFSLPIPSKYECSLRDCLQCFFQQDALTWNNEIHCSFCETKQETAVRASISKAPKIIIFHLKRFDIQGTTKRKLRTDIHYPLTNLDLTPYICSIFRKYPKYNLCAVVNHFGDLDGGHYTAFCKNSVTQA
Take B1: the binding result was “binds”.
